The values are deposited in ChEMBL (CHEMBL3988442, “University of Dundee, Small-Polar-MMV Screening Library” (2021)).

Sequences of proteins named here, by UniProt entry; tags and fusion partners are left off. Residues count along the entry.
UniProt Q4DA54, 1-478: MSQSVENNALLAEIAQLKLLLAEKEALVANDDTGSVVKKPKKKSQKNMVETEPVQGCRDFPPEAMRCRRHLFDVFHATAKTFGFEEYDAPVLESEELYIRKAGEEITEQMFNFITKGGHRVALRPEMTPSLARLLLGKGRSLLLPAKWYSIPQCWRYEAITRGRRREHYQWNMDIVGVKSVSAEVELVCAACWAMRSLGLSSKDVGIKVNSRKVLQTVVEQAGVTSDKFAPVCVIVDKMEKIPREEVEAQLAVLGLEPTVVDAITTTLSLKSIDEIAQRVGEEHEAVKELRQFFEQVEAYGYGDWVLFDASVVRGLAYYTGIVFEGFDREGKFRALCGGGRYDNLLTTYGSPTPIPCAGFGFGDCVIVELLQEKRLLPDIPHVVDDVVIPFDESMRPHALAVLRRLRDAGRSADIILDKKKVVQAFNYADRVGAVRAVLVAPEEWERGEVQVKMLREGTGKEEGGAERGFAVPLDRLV
UniProt I6X8D2, whole entry: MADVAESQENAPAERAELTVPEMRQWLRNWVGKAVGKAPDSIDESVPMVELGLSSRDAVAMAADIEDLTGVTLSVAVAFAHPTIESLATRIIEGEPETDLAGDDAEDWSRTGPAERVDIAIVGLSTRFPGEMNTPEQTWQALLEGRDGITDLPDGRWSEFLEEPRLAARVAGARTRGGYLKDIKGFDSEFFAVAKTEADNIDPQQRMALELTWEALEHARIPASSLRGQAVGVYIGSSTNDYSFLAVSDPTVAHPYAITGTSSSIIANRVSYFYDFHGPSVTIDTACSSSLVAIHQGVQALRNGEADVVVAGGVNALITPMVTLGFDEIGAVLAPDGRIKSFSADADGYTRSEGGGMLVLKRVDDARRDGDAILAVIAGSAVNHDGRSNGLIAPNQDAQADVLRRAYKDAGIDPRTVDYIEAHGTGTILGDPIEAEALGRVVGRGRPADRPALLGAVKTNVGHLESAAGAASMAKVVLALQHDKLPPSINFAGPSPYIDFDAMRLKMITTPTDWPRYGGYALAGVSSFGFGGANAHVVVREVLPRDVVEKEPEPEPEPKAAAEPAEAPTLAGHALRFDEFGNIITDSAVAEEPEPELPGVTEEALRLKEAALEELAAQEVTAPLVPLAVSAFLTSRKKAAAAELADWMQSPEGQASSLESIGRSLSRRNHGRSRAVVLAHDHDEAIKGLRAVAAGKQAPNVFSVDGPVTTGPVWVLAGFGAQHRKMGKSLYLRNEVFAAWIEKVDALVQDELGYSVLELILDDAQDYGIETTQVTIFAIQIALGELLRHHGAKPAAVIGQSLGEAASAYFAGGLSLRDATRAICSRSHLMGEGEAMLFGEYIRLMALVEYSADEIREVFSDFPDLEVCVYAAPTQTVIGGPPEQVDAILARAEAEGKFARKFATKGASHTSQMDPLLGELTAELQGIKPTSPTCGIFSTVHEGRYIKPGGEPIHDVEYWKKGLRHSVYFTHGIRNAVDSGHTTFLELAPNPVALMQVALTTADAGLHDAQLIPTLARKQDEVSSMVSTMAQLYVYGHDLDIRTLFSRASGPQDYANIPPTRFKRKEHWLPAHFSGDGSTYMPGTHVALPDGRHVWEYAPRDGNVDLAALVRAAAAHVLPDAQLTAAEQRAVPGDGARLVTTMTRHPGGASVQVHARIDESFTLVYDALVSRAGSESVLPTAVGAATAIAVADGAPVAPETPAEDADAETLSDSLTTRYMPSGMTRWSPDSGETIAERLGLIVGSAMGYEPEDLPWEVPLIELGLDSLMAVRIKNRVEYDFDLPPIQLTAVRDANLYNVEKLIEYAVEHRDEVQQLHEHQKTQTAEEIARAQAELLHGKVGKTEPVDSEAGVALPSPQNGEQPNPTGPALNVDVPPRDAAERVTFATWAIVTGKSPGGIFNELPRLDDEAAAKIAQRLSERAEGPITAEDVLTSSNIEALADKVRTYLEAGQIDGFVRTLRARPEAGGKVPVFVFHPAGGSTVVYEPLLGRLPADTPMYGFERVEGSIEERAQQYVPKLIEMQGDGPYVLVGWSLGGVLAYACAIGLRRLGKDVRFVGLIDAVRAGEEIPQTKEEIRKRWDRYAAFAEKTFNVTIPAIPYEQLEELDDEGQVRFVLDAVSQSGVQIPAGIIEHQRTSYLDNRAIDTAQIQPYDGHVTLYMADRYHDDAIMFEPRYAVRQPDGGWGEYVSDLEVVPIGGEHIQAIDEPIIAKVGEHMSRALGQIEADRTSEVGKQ
UniProt P9WNZ1, whole entry: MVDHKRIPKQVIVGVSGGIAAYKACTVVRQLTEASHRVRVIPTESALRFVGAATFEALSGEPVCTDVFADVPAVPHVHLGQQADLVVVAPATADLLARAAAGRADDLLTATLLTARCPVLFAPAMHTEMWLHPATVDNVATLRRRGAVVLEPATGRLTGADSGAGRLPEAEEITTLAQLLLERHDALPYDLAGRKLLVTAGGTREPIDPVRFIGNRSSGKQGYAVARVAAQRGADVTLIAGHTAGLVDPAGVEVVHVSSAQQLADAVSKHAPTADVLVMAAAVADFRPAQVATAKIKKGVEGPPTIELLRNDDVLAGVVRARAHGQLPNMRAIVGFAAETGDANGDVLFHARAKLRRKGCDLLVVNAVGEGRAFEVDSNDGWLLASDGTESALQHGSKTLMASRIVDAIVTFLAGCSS
UniProt Q8IDJ8, 1-583: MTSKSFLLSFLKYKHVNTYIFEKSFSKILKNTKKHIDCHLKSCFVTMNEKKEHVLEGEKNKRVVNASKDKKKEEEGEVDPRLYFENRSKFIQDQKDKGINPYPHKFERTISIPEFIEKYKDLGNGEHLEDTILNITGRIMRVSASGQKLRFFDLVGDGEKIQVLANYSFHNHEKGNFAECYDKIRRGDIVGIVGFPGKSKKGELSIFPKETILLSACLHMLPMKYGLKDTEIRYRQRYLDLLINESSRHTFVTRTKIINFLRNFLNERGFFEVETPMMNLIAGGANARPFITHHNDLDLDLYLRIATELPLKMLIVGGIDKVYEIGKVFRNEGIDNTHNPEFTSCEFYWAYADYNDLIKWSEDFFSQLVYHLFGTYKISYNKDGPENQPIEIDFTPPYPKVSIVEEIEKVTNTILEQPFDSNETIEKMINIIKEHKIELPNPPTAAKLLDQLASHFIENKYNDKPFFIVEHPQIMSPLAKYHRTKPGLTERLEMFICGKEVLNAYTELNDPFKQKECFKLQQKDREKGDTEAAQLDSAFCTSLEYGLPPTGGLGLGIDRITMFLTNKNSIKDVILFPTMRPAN
UniProt P9WFT3, whole entry: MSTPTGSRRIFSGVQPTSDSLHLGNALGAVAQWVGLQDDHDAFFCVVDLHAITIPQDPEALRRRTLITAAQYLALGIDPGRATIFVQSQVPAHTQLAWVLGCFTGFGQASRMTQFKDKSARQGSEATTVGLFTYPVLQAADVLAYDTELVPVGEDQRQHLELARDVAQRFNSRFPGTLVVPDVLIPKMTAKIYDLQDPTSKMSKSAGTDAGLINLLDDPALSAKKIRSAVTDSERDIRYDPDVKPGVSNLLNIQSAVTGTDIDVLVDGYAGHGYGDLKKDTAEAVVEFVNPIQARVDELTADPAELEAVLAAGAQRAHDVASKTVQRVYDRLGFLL

A: 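Histidine-tRNA ligase, Trypanosoma cruzi CL Brener (UniProt Q4DA54). Enzyme assay of histidyl-tRNA synthetase; the read-out is not stated. Compounds at 30 µM. Higher reads as stronger inhibition (inferred: compounds with an IC50 in retests scored well above the rest). Of about 69,000 compounds tested this way, about 31 (0.045%) reached 50% or more in at least one test.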
B: 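Polyketide synthase Pks13, Mycobacterium tuberculosis (UniProt I6X8D2). Enzyme assay of the thioesterase domain of polyketide synthase 13; the read-out is not stated. Compounds at 30 µM. Higher reads as stronger inhibition (inferred from which compounds were picked for retests). About 67,000 compounds were tested under these conditions; 0.46% (about 300) showed 50% or more at least once.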
C: 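Enzyme assay of CoaBC with a phosphate dye (Biomol Green) read at 650 nm. Target: Coenzyme A biosynthesis protein CoaBC, Mycobacterium tuberculosis (UniProt P9WNZ1). Concentration: 30 µM. Direction is inferred from only a few compounds that gave an IC50; most scored high, so higher reads as stronger inhibition. Most strong results did not repeat in a second test. About 67,000 compounds were tested under these conditions; 0.06% (about 40) showed 50% or more at least once.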
D: 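Cell assay of Leishmania donovani living inside macrophages; the read-out is not stated. Concentration: 30 µM. The record gives no direction; compounds that gave an IC50 in retests scored well above the rest, so higher reads as stronger inhibition. About 69,000 compounds were tested under these conditions; 1.5% (about 1,000) showed 50% or more at least once.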
E: 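Enzyme assay of the cytosolic lysyl-tRNA synthetase in 384-well plates, read by luminescence. Target: Lysine-tRNA ligase, Plasmodium falciparum 3D7 (UniProt Q8IDJ8). Concentration: 30 µM. Higher reads as stronger inhibition, judged from the few compounds that gave an IC50. Of about 69,000 compounds tested this way, about 49 (0.071%) reached 50% or more in at least one test.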
F: 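Tryptophan-tRNA ligase, Mycobacterium tuberculosis (UniProt P9WFT3). Enzyme assay of tryptophanyl-tRNA synthetase; the read-out is not stated. Tested at 10 µM. Direction is not recorded; retested compounds ran higher, which suggests that high means inhibition. Size under these conditions: about 65,000 compounds, about 64 of them at 50% or above in at least one test.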

Values are the deposited “Percent Effect”, in %.
The record does not define 0% and 100%; most values in the screen are far below 50% and negative numbers occur (in some assays of this library far below -100).
The compounds are a random part of those screened.

{"smiles": "Cc1nn(C)c2nc(NCCOCCO)sc12", "A": 13.69, "B": -2.557, "C": 3.532, "D": 3.903, "E": 2.688, "F": 2.147}
{"smiles": "Cc1cccc(CN2CCC3(CCCN(C(=O)NC4CC4)C3)C2=O)n1", "stereo": "stereo unspecified", "A": 6.522, "B": -8.093, "C": -0.6337, "E": -1.427, "F": 3.859}
{"smiles": "CN(Cc1ccccn1)C(=O)[C@H]1CO[C@H]2CCN(CC3CC3)C[C@H]2C1", "A": 7.735, "B": -0.9783, "C": 1.98, "E": 5.923}
{"smiles": "Cc1ocnc1C(=O)N1CCCN(Cc2cscn2)CC1", "A": -1.458, "B": -27.39, "C": 4.961, "D": -29.47, "E": -1.477, "F": 23.2}
{"smiles": "CCOCC(=O)N1CCC(c2nc(-c3cccnn3)no2)CC1", "A": 5.263, "B": -34.22, "D": 14.47, "E": -1.218, "F": 0}
{"smiles": "O=C(COc1cccc2c1CCC2=O)NCCc1cccs1", "A": -3.333, "B": -4.571, "C": 4.132, "D": -11.65, "E": -0.3431, "F": 7.314}
{"smiles": "[H][C@]12CC[C@]([H])(CN(Cc3cscn3)C1)N(C(=O)CN1CCOC1=O)C2", "D": 6.999}
{"smiles": "COc1ncccc1C(=O)N1CC[C@H]2C[C@H](c3nnc(C)[nH]3)O[C@@H]2C1", "A": 8.537, "B": 10.81, "C": 7.769, "E": 3.596, "F": 0.9682}
{"smiles": "Cn1nccc1-c1nnn2c1COC(CNCc1nccs1)C2.O=C(O)C(F)(F)F", "stereo": "stereo unspecified", "D": 25.95}
{"smiles": "O=C(CCc1nc2cccnc2[nH]1)Nc1ccc2c(c1)NC(=O)CO2", "A": 5.699, "B": -20.24, "C": -6.25, "D": 20.44, "E": 0.1762, "F": 1.699}
{"smiles": "Cc1nn(C)c2c(N3CCC(C)CC3)nc(C3CC3)nc12", "A": 9.845, "B": -14.08, "C": 17.4, "D": -5.292, "E": 6.94, "F": -4.917}
{"smiles": "CCNC(=O)CN1CCC(c2cc(OC)cc(OC)c2)C1", "stereo": "stereo unspecified", "A": 6.897, "B": -3.69, "C": 2.554, "D": -1.535, "E": 1.877, "F": -3.216}
{"smiles": "Cn1cc(-c2nc(C(=O)N3CCCC3Cn3cccn3)cs2)cn1", "stereo": "stereo unspecified", "A": 6.358, "B": -1.619, "C": 2.937, "D": -6.821, "E": 1.722, "F": -8.291}
{"smiles": "Cc1nc(C)n(CC2CCCN(c3ncnc4c3CCC4)C2)n1", "stereo": "stereo unspecified", "A": 4.511, "B": -1.723, "C": 1.068, "D": 28.07, "E": -4.214, "F": -2.113}
{"smiles": "NC(=O)N1CCC2(CCN(Cc3cccc(F)c3)CC2)CC1.O=C(O)C(F)(F)F", "D": 29.38}
{"smiles": "COc1c(C)cnc(CN2CCOC(Cn3cc(C)cn3)C2)c1C", "stereo": "stereo unspecified", "A": 2.286, "B": -16.43, "C": 0.2625, "D": 14.15, "E": 0.01315, "F": 2.407}